The text below walks through data of patent publication US10899764B2, “Imidazo isoindole derivative, preparation method therefor and medical use thereof” (Jiangsu Hengrui Medicine Co., Ltd., priority 2015, dated 2021).

Series [1] is described as follows: Pharmacokinetics assay in SD rats after intragastrical administration. As to conditions: both, Sprague-Dawley, rat, in vivo, po, 10 mg/kg.
The nature of series [2]: Pharmacokinetics assay in c57bl/6 mice after intragastric administration. The note with it: female, C57BL/6, mouse, in vivo, po, 2 mg/kg.

Usually CL/F stands for the apparent clearance, not corrected for the fraction that reaches the circulation. The Vd/F is the volume of distribution divided by bioavailability. For orientation: half-life means the time in which the quantity being followed falls by half. In series [1], `Cn1cc(-c2ccc(N3CCC(C4c5c(F)cccc5-c5cncn54)CC3)cc2)cn1` (stereo not drawn) [Example 9, 6-fluoro-5-(1-(4-(1-methyl-1H-pyrazol-4-yl)phenyl)piperidin-4-yl)-5H-imidazo[5,1-a]isoindole] showed an apparent clearance CL/F of 15.2 ± 10.9 mL/min/kg, a Vd/F of 2.62 ± 1.59 L/kg and a half-life of 2.22 ± 0.48 h.

Usually AUC stands for the area under the concentration-time curve, a measure of exposure. High values mean high exposure, low ones low exposure. The Cmax is the highest concentration seen after dosing. As usually defined, the MRT is the average time that molecules of a dose stay in the body. In series [2], `Cn1cc(-c2ccc(N3CCC([C@H]4c5c(F)cccc5-c5cncn54)CC3)cc2)cn1` [Example 28, (S)-6-fluoro-5-(1-(4-(1-methyl-1H-pyrazol-4-yl)phenyl)piperidin-4-yl)-5H-imidazo[5,1-a]isoindole] displayed an AUC of 5670 ng·h/mL, a CL/F of 5.88 mL/min/kg, a Cmax of 972 ng/mL and an MRT of 6.99 h. Besides, in series [2], the Vd/F worked out at 2.44 L/kg and the half-life is 4.79 h.
